In CN114671953A:
Results are given in words; binding and its absence hold for the method and conditions named. Some binding calls cover weakened binding; strength is not graded here.

Amino acid sequences for entries named in this document (tags omitted). A change or cut given only in a name is not applied to a line headed by its entry. Residues count along the entry.
UniProt Q96NY8: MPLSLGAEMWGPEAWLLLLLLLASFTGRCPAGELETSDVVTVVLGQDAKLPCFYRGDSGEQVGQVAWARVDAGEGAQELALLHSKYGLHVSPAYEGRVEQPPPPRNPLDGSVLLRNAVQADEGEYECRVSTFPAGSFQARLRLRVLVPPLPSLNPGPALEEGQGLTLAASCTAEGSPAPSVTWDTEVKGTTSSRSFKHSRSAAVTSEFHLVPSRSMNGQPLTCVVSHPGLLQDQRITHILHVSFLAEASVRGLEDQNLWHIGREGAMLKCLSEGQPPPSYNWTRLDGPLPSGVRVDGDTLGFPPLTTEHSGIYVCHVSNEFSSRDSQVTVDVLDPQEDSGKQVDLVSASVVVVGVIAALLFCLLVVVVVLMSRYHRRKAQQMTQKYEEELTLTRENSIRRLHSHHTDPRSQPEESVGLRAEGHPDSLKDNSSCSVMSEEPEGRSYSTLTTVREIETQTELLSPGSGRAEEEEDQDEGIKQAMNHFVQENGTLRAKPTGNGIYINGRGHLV
人Nectin-4: residues 32-349 of Q96NY8

Tests used:
[1] = molecular target: 人Nectin-4 (human) (UniProt Q96NY8); assay: ELISA, human Nectin-4 coated at 0.5 ug/mL, antibody 2 ug/mL
[2] = molecular target: 食蟹猴Nectin-4 (cynomolgus monkey); assay: ELISA, cynomolgus Nectin-4 coated at 0.5 ug/mL, antibody titrated from 2 ug/mL
[3] = molecular target: 人Nectin-4 (human) (UniProt Q96NY8); assay: ELISA (Fig. 2)
[4] = molecular target: 食蟹猴Nectin-4 (cynomolgus monkey); assay: ELISA (Fig. 3 legend)
[5] = molecular target: 人Nectin-4 (human) (UniProt Q96NY8); assay: BLI, VHH-Fc on anti-hIgG Fc probe
[6] = molecular target: 细胞表面表达的Nectin-4(人乳腺癌细胞MCF-7、T-47D) (human) (UniProt Q96NY8); assay: flow cytometry on Nectin-4 expressing MCF-7 cells, 10 ug/mL or 5 nM

Measured: binding

B1: CMB7-7 (Fc fusion, not shown: a dimerising Fc or GST)
chain: QVQLVESGGGLVQAGGSLRLSCAASGSIFSINAMGWFRQAPGKQRELAAAITSGGSTKYADSVKGRFTISRDNAKNTVYLQMNRLKPEDTGVYYCAAATGEPFEYNYWGQGTQVTVSS
binds: all assays above

B2: CMB7-8 (Fc fusion, not shown: a dimerising Fc or GST)
chain: QVQLVESGGGLVQAGGSLRLSCAASGNIFSVNAMGWFRQAPGKQRELVAAITSGGSIRYVDSVKGRFTISRDNAKNTVYLQMNSLKPEDTAVYYCAAARGEPYEYDYWGQGTLVTVSS
binds: all assays above

B3: CMB7-9 (Fc fusion, not shown: a dimerising Fc or GST)
chain: QVQLVESGGGLVQPGGSLRLSCAASGSIFSINAMGWYRQAPGKQRELVASITNGGSTKYDDSVKGRFTISRDNAKNTVYLQMNSLKPEDTAVYYCAAASLVVGGTWEYDTWGQGTLVTVSS
binds: all assays above

B4: CMB7-10 (Fc fusion, not shown: a dimerising Fc or GST)
chain: QVQLVESGGGLVQAGESLRLSCAASGSIFSINAMAWYRQAPGKQRELVAAITSGGSTKYADSVKGRFTISRDNAKNTVYLQMNSLKPEDTAVYYCAAMDRTTLEYDYWGQGTLVTVSS
binds: all assays above

B5: CMB7-11 (Fc fusion, not shown: a dimerising Fc or GST)
chain: QVQLVESGGGLVQAGGSLRLSCAASGSIFSISAMGWFRQAPGNQREMVAAITKGGSVNYADSVKGRFTITRDNAKNTVYLQMNSLKPEDTAVYYCAAAVGAPFEYDYWGQGTQVTVSS
binds: all assays above

B6: CMB7-12 (Fc fusion, not shown: a dimerising Fc or GST)
chain: QVQLVESGGGLVQPGGSLRLACAASGSIFSINVMGWYRQAPGKQREYVASVSRGGSVKYVDSVKGRFTVSRDNAKNTMYLEMNSLKPEDTAIYFCGAETKMGRGFDSWGQGTQVTVSS
binds: all assays above

B7: CMB7-18 (Fc fusion, not shown: a dimerising Fc or GST)
chain: QVQLVESGGGLVQAGGSLRLSCAASGSIFSINAMGWHRQGPGDQRELVAAITSGGSTKYVDSVKGRFTISRDNAKNTVYLQMNSLKPEDTGVYYCAAMGGSYEYDYWGQGTQVTVSS
binds: all assays above

B8: CMB7-19 (Fc fusion, not shown: a dimerising Fc or GST)
chain: QVQLVESGGGLVQAGGSLGLSCAASESIFSYNAMGWFRQAPGKQRELVAAITSGGSIKYADSVKGRFTISRDNAKNTVYLQMNSLKPEDRGVYYCAAMDRTTLEYDYWGQGTLVTVSS
binds: all assays above

B9: CMB7-20 (Fc fusion, not shown: a dimerising Fc or GST)
chain: QVQLVESGGGLVQPGGSLRLSCAASGSIFSMNVMGWYRQAPGKQRELVATITSGGSTNYADSVKGRFTISRDNANNTVYLQMNSLKPEDTAVYYCTGDQLGPLGTFSPIVYWGQGTQVTVSS
binds: all assays above

B10: CMB7-22 (Fc fusion, not shown: a dimerising Fc or GST)
chain: QVQLVESGGGLVQAGGSLRLSCAASGSIFSINAMGWFRQAPGKQRELVAAITSGGSTNYAVSVKGRFTISSDKAKNTVYLQMNSLKPEDTAVYYCAAARGEPFEYEYWGQGTLVTVSS
binds: all assays above

B11: CMB7-23 (Fc fusion, not shown: a dimerising Fc or GST)
chain: QVQLVESGGGLVQPGGSLRLSCAASGSDFTINVMGWYRQAPGKQRELVATVTSGGSLNYADSVKGRFTISRDNAKNTVYLQMNSLKPEDTAVYYCTADQFGPLGHLSPIIYWGQGTQVTVSS
binds: all assays above

B12: CMB7-6 (Fc fusion, not shown: a dimerising Fc or GST)
chain: QVQLVESGGGLVQPGGSLRLSCAASGSIFSINVMGWYRQAPGKQRELVATITSGGSVNYADSVKGRFTISRDNANNTVYLQMNTLKPEDTAVYYCTADQLGPLGLLSPTIYWGQGTLVTVSS
binds: all assays above
